Measurements taken from patent US10314917B2 (The Brigham and Women's Hospital, Inc., priority 2014, dated 2019).

Experiment: peptide synthesis
Conditions: conjugation step

Work on H-KLWVLPKGGGC-NH2 yielded a conjugation yield of 67%.
